Measured values: PubChem BioAssay AID2685 (National Center for Advancing Translational Sciences (NCATS), 2010)
This is one part of the list. These are further read-outs of the screen, such as a control signal, another cell line or another target. No call is given for them. Most of these compounds were active or inconclusive in the main read-out, so they are no random draw. Potencies come from curve fits of mixed quality, noted in brackets.

Experiment: qHTS Assay for Lipid Storage Modulators in Drosophila S3 Cells;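 on cell number change: cells counted by Cell Tracker Red CMTPX staining in the red channel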
Conditions: BODIPY lipid droplet fluorescence, 18-24 h; for cell number change: measured here: cell count max response, cells fed with added oleic acid
Procedure, shortened: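 Laser-scanning cytometry quantifies lipid droplet accumulation (500–530 nm total intensity; droplet/cell object ratio) in oleic acid-fed (400 uM added) Drosophila S3 cells treated with a concentration series. 20 uM Triacsin C defined 100% inhibition.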

[1] = measured here: cell number channel AC50, cells fed with added oleic acid
[2] = measured here: lipid fluorescence (Fed channel) AC50, cells fed with added oleic acid

SMILES	cell number change	AC50 [1]	AC50 [2]
COC(=O)c1ccc(COc2ccc(Cl)cc2)o1	-13.5%	1.64 µM [rising, partial curve, poor fit]	4.11 µM [rising, partial curve, poor fit]
Cc1cccc(N2CC(C(=O)O)CC2=O)c1 (centres undefined)	-10.8%	–	0.58 µM [falling, full curve]
COc1ccc(/C=C/c2c([N+](=O)[O-])c(=O)n(C)c(=O)n2C)cc1O	-16.1%	–	0.231 µM [falling, full curve, poor fit]
O=c1/c(=C/c2ccco2)sc2nc(-c3ccccc3Br)nn12	72.1%	29.1 µM [rising, partial curve, poor fit]	–
CCOC(=O)c1c(C)[nH]c2ccc(O)cc12	11.1%	–	–
Cc1cc(=O)c2c(o1)CC(C)(C)CC2=O	-43.1%	1.3 µM [falling, full curve]	16.4 µM [falling, partial curve]
Cc1nn(-c2nnc(C)c(=O)[nH]2)c(C)c1SCC(=O)Nc1ccc(F)cc1	-154%	16.4 µM [falling, partial curve]	14.6 µM [falling, partial curve]
NC(=O)c1nsc(C(=O)N(CCCN2CCOCC2)C(C(=O)NC2CCCCC2)c2ccc(Cl)cc2)c1N (centres undefined)	-13.5%	–	–
O=S(=O)(NCc1ccccc1)c1ccc2ccccc2c1	-22.6%	–	0.13 µM [falling, full curve, poor fit]
Cc1cc2cc(NC(=O)c3ccco3)ccc2[nH]1	-13.8%	–	–
Cc1nn(CC(=O)NCCc2ccc(Cl)cc2)c(C)c1[N+](=O)[O-]	12.2%	–	20.6 µM [rising, single point]
Cc1cccc(C(=O)NNC(=O)C2CCN(C(=O)OC(C)(C)C)CC2)c1	11.9%	–	–
COc1ccccc1CNC(=O)C(=O)c1cn(CC(=O)N2CCOCC2)c2ccccc12	9.14%	–	3.26 µM [rising, full curve]
O=C(O)c1ccc(/C=N/NC(=O)c2ccc3c(c2)OCCO3)cc1	-19.8%	–	–
Cc1ccc(C)c(N2C(=O)CS/C2=N\NC(=O)c2ccccc2Cl)c1	-0.804%	–	0.411 µM [rising, single point]
CCCCCCNC(=O)c1ccc(Br)o1	–	–	9.2 µM [rising, partial curve]
Cc1cccc(NC(c2ccc(C)s2)c2ccc3ccc(C)nc3c2O)n1 (centres undefined)	-39.9%	23.1 µM [falling, single point]	–
CC1CCC(C(C)C)C(OCC(O)CNC(C)C)C1 (centres undefined)	-36.6%	4.61 µM [falling, full curve]	–
CCOc1ccc(CCNC(=O)COC(=O)c2cccnc2SC)cc1OCC	-30.2%	8.2 µM [falling, partial curve]	2.31 µM [falling, full curve]
CCC1C(=O)N=C(SCC(=O)NC2CCCCC2)NC1=O (centres undefined)	-3.46%	1.64 µM [falling, partial curve, poor fit]	1.46 µM [falling, partial curve]
N#Cc1cc(-c2ccccc2)nc(Oc2ccc(Cl)cc2)n1	37.9%	23.1 µM [rising, single point]	–

Nothing new here: entries from further up.
SMILES	cell number change	AC50 [1]	AC50 [2]
Cc1cccc(NC(c2ccc(C)s2)c2ccc3ccc(C)nc3c2O)n1 (centres undefined)	-39.9%	23.1 µM [falling, single point]	–
CC1CCC(C(C)C)C(OCC(O)CNC(C)C)C1 (centres undefined)	-36.6%	4.61 µM [falling, full curve]	–
CCOc1ccc(CCNC(=O)COC(=O)c2cccnc2SC)cc1OCC	-30.2%	8.2 µM [falling, partial curve]	2.31 µM [falling, full curve]
CCC1C(=O)N=C(SCC(=O)NC2CCCCC2)NC1=O (centres undefined)	-3.46%	1.64 µM [falling, partial curve, poor fit]	1.46 µM [falling, partial curve]
N#Cc1cc(-c2ccccc2)nc(Oc2ccc(Cl)cc2)n1	37.9%	23.1 µM [rising, single point]	–

The listing continues.

SMILES	cell number change	AC50 [1]	AC50 [2]
N#CCCN(C(=O)COC(=O)c1ccc2c(c1)OCO2)c1ccccc1	12.7%	–	0.461 µM [rising, full curve]
CCN(CC)c1nc(Oc2ccc(C(=O)NN)cc2)nc(Oc2ccc(C(=O)NN)cc2)n1	–	0.82 µM [rising, single point]	–
CN(C)C(=S)NC1CCS(=O)(=O)C1 (centres undefined)	-32.5%	18.4 µM [falling, single point]	–
NC(=O)C1CCCN(C(=O)c2ccc(-c3cccc(Cl)c3Cl)o2)C1 (centres undefined)	49%	13 µM [rising, partial curve, poor fit]	–
CCOC(=O)c1sc(Nc2cccc(Cl)c2)nc1C	-18.8%	–	29.1 µM [falling, single point]
O=C(N/N=C/c1ccc(Br)cc1)c1ccc(Br)o1	21.3%	–	8.2 µM [rising, partial curve, poor fit]
COc1ccc(NC(=S)N2CCC(NC(=O)c3ccco3)CC2)cc1	–	–	29.1 µM [falling, single point]
COc1cccc(CNC(=O)c2ccc(NC(=O)CC3SC(N4CCCC4)=NC3=O)cc2)c1 (centres undefined)	-26.1%	–	32.6 µM [falling, single point]
COc1ccccc1/C=C1/SC(=O)N(CCC(=O)Nc2ccc(S(=O)(=O)Nc3nccs3)cc2)C1=O	22%	–	–
O=C(CSc1nnc(C2COc3ccccc3O2)o1)NC1CCCCC1 (centres undefined)	-10.5%	–	29.1 µM [falling, single point]
O=C(CCN1Cc2ccccc2C1)c1ccc2c(c1)OCCO2	–	0.92 µM [rising, single point]	–
Nn1c(CSc2ccccn2)nc2ccccc2c1=O	-2.45%	–	0.103 µM [rising, full curve, poor fit]
CCn1ncc(Br)c1C(=O)Nc1cccc(C(C)=O)c1	-6.38%	–	–
CCOc1ccc(CCNc2nc3ccccc3n3cnnc23)cc1OCC	17.8%	–	3.66 µM [rising, single point]
Cc1ccc(N(CN2C(=O)C3CC=CCC3C2=O)C(=O)c2ccco2)cc1Cl (centres undefined)	3.59%	–	–
COc1ccc(S(=O)(=O)N2CCCCCC2)cc1C(=O)Nc1ccc(C(=O)N(C)C)cc1	–	4.61 µM [rising, single point]	–
Cc1c(NC(=O)COC(=O)c2c3c(nc4ccccc24)CCCC3)c(=O)n(-c2ccccc2)n1C	7.3%	–	0.58 µM [rising, full curve]
CC(=O)Nc1sc2c(c1-c1nc3ccccc3s1)CCN(C(C)C)C2	-26.4%	–	–
Cc1ccc2c(c1)/C(=C/c1ccco1)C(=O)N2	-39.8%	23.1 µM [falling, single point]	23.1 µM [falling, single point]
N#CCCN1CCN(C2=NC(=O)/C(=C\c3cccs3)S2)CC1	64.5%	29.1 µM [rising, single point]	–
CC(=O)N1CN(CCCn2ccnc2)Cc2c1sc1c2CCCC1	11.6%	–	23.1 µM [rising, single point]

SMILES	cell number change	AC50 [1]	AC50 [2]
COCCN(C(=O)COC(=O)c1sccc1C)c1c(N)n(Cc2ccccc2)c(=O)[nH]c1=O	24.3%	–	11.6 µM [falling, single point]
Cc1cc(=O)[nH]c(SCC(=O)Nc2ccc(Br)cc2)n1	-0.584%	–	14.6 µM [rising, partial curve]
Cc1ccc(N2C(=O)CC3(CC4C=CC3C4)C2=O)cc1 (centres undefined)	13.6%	–	–
O=C(O)CCN1CCOCC1	10.1%	–	29.1 µM [rising, single point]
Cc1cc(N2CCN(C)CC2)nc2ccc(NC(=S)NCCCN3CCN(C)CC3)cc12	-34.3%	9.2 µM [falling, partial curve]	7.31 µM [falling, partial curve, poor fit]
Nc1nc(CSc2n[nH]c(-c3ccccc3)n2)nc(Nc2ccccc2)n1	–	–	0.411 µM [falling, partial curve, poor fit]
O=[N+]([O-])c1cc(/C=N/N/C(=N/c2ccccn2)c2ccccn2)ccc1O	-32.5%	29.1 µM [falling, single point]	16.4 µM [falling, partial curve]
COc1ccccc1OCc1nc2ccccc2s1	24%	–	16.4 µM [rising, partial curve]
N#Cc1cccc(NC(=O)CC2CCCCC2)c1	-30.7%	2.31 µM [falling, full curve, poor fit]	–
CCCCCC1CC(CC(=O)O)C(=O)O1 (centres undefined)	-32.5%	58 µM [falling, partial curve, poor fit]	23.1 µM [falling, partial curve]
Cc1cc(=O)oc2ccc(OC(=O)c3cccc(S(=O)(=O)N4CCOCC4)c3)cc12	–	0.092 µM [falling, full curve, poor fit]	–
CN(Cc1ccc(-n2cccn2)cc1)C(=O)c1cnn2c1NC(c1ccco1)CC2C(F)(F)F (centres undefined)	43.9%	6.51 µM [rising, partial curve, poor fit]	0.13 µM [rising, full curve, poor fit]
COC(=O)C1=C(C(=O)OC)[C@@H]2N(Cc3ccccc3)c3ccccc3[C@@]23C[C@@H](C(=O)OC)N(C(=O)CC(C)C)C3=N1	-23.3%	–	5.17 µM [falling, full curve]
CC(=O)c1ccc(N(C(=O)c2ccco2)C(C(=O)NC2CCCC2)c2cccs2)cc1 (centres undefined)	11.5%	–	–
Cc1cccc(C)c1NC(=O)NC1(C(=O)NCC2CCCO2)CCCCC1 (centres undefined)	10.5%	–	–
CC(OC(=O)C1=NN(c2ccccc2)C(=O)CC1)C(=O)NC1CCCCC1C (centres undefined)	-13.6%	–	32.6 µM [falling, partial curve, poor fit]
CCc1ccc2oc(-c3ccc(NC(C)=O)cc3)nc2c1	–	–	29.1 µM [falling, single point]
Cc1cnc(C)c(N2CCN(Cc3nc(-c4ccccc4)no3)CC2)n1	9.81%	–	0.00517 µM [rising, full curve, poor fit]
CCOc1cc(/C=N/N=C2/NC(=O)C(CC(=O)O)S2)ccc1OCc1ccccc1Cl (centres undefined)	21.6%	5.8 µM [falling, single point]	20.6 µM [falling, single point]
CC(=O)NC(Cc1ccc(F)cc1)C(=O)NC1CCN(C(=O)NCc2ccccc2)CC1 (centres undefined)	–	–	29.1 µM [falling, single point]
